PubChem BioAssay (EPA / NIEHS)
“And” between values parts separate entries of the source, which are not always exact repeats. Equal entries are not always repeated. The shares of active, inactive and inconclusive entries below differ from those in the screen. For some of these results: Where the call is inconclusive, the potency comes from a doubtful curve fit. Some structures have more than one record in an assay (separate samples or runs), and their calls can disagree. The source made the active and inactive calls. Rule for the calls: active = hit-call score of the fitted dose curve at least 0.9, where 1 is the maximum; inconclusive = response in the unintended direction; inactive = score below 0.9.

The chains behind the UniProt entries cited, without tags or fusion partners. Where a name states a change or a piece, a line headed by the entry shows the natural chain unless it says otherwise.
UniProt P49884, whole entry, looked up: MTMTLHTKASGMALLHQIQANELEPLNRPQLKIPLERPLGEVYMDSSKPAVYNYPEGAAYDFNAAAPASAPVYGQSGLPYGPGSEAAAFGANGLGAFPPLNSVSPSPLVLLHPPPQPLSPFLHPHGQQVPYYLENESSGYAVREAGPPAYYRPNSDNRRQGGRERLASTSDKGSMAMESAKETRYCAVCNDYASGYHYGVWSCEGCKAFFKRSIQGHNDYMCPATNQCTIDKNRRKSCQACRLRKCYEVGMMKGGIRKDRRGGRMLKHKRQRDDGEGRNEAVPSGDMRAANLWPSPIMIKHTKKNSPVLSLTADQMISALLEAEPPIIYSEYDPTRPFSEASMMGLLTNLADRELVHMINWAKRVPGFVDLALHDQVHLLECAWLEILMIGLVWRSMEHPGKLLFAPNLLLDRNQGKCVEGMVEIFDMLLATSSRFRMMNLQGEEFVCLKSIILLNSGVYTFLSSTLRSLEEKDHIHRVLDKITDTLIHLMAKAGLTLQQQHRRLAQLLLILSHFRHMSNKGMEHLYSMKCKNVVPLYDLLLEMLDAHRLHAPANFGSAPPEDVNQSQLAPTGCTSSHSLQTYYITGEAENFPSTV
UniProt P37231: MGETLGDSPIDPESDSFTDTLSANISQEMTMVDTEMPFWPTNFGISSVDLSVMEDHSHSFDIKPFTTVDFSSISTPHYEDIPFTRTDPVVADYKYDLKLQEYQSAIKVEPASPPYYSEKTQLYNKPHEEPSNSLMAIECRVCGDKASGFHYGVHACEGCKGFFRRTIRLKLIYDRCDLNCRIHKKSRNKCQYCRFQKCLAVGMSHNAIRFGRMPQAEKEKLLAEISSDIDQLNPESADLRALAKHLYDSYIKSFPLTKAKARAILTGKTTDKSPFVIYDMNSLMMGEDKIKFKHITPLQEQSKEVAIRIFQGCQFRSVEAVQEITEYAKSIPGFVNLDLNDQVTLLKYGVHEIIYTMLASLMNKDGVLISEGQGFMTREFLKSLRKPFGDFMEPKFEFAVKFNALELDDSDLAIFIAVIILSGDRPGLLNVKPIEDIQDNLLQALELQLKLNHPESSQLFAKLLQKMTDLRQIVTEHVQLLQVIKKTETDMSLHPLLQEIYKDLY
UniProt P10275: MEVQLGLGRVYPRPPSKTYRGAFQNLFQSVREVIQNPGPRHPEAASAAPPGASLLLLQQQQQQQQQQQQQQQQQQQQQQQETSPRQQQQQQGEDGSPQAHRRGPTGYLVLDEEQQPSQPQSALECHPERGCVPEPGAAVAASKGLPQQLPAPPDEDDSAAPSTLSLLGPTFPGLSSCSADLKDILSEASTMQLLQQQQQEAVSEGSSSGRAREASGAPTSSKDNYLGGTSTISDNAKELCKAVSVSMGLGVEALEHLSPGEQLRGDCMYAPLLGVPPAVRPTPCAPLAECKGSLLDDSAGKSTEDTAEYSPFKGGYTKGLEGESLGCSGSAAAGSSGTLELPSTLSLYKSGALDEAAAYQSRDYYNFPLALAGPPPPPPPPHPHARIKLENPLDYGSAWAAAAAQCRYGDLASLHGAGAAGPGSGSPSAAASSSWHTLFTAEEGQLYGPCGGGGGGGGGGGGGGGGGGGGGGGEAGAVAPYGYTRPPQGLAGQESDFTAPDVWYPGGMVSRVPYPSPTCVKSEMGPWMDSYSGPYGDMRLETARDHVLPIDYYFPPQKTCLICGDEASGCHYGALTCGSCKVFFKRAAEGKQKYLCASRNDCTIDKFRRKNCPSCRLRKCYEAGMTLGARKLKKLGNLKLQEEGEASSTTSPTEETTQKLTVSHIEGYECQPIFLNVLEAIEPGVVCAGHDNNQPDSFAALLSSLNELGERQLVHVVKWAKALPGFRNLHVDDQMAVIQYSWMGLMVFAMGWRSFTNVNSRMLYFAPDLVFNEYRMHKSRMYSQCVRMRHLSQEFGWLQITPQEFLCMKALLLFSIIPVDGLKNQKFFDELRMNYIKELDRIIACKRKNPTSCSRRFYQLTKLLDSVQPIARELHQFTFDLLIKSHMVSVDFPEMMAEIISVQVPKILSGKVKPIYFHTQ
UniProt P16257, whole entry, looked up: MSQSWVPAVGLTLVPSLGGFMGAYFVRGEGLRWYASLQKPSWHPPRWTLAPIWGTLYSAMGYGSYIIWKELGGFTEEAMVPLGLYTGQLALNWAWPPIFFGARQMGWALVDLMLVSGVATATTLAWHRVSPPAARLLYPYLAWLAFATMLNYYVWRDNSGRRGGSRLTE
UniProt O75469: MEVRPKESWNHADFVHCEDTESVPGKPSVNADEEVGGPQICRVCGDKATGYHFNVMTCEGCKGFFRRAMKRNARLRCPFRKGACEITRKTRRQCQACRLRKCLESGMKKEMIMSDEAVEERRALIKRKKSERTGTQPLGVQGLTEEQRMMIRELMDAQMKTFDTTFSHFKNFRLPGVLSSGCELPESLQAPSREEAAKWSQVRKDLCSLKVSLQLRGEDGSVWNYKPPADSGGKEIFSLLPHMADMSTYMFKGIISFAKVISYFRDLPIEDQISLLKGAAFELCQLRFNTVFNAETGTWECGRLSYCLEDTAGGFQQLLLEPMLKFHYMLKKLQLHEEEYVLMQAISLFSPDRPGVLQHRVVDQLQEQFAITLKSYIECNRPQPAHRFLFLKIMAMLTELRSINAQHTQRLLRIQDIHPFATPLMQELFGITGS
UniProt P60484: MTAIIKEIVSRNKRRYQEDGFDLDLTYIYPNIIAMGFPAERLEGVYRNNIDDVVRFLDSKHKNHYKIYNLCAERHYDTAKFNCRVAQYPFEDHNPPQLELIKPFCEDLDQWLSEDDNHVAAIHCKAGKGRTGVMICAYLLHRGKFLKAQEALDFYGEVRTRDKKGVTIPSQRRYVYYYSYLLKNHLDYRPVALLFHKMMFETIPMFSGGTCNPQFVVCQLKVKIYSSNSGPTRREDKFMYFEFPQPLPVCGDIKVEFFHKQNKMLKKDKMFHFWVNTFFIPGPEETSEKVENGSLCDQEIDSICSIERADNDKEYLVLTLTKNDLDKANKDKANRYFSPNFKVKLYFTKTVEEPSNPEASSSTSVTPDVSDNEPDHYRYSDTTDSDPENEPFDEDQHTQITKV

What was measured:
[1] = target: bovine Estrogen Receptor (ER), ESR1 (gene 407238) (UniProt P49884); assay: NVS_NR_bER: NovaScreen (NVS) Nuclear Receptor Binding Assay for bovine Estrogen Receptor (ER) (AID 2283345);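 note: actives lower the bound radioligand count which means they displace the ER ligand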
Outline: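 Cell-free radioligand binding with receptor from bovine uterine membranes, read by scintillation counting 18 h after dosing. Loss of specific binding was scored against DMSO; primary screen at 25 uM in duplicate, actives then run as concentration series.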

[2] = target: Peroxisome proliferator-activated receptor gamma (Homo sapiens) (UniProt P37231); assay: NVS_NR_hPPARg: NovaScreen (NVS) Nuclear Receptor Binding Assay for human Peroxisome Proliferator-activated Receptor gamma (PPARg) (AID 2283370)
Outline: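 Chemicals were tested first in duplicate at 25 uM, then in concentration series if active. Binding to cell-free PPARg protein was measured by fluorescence polarization after 2 h, with loss of signal scored against DMSO.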

[3] = Tanguay_ZF_120hpf_EYE_legacy: (Legacy) Oregon State University Tanguay Lab 120 Hour Post-fertilization zebrafish Assay for Eye Malformation (AID 2283636)
Outline: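 Static waterborne exposure of dechorionated zebrafish embryos (strain Tropical 5D), 6 to 120 hpf, sealed plates at 28C, 0.64% DMSO vehicle. Eye malformation is scored as a binary endpoint, with gain of signal analysed relative to DMSO.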

[4] = Tanguay_ZF_120hpf_TR_legacy: (Legacy) Oregon State University Tanguay Lab 120 Hour Post-fertilization zebrafish Assay for Touch Response (AID 2283667)
Outline: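 Readout is presence or absence of touch response in 120 hpf zebrafish larvae, assessed by brightfield observation after continuous static exposure at 28C. Final vehicle was 0.64% (vol/vol) DMSO.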

[5] = read-out: xenobiotic metabolism (CYP1A1), CYP1A1 (gene 1543); assay: CLD_CYP1A1_24hr: CellzDirect (CLD) Gene Expression Assay for xenobiotic metabolism (CYP1A1) at 24 hours (AID 2283673);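 note: CYP1A1 mRNA level by quantitative nuclease protection with chemiluminescence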
Outline: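 Transcript levels were read at 24 h by qNPA chemiluminescence in human liver primary cells. Cells got daily fresh dosing at multiple concentrations (vehicle 0.2% DMSO). Induction fitted upward against DMSO; phase-contrast cytotoxicity annotated.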

[6] = tested on: chicken Androgen Receptor (AR), gene 422165; assay: ATG_chAR_XSP2: Attagene TRANS-FACTORIAL Multi-Species (XSP2) HepG2 Assay for chicken Androgen Receptor (AR) (AID 2283819);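 note: GAL4-driven reporter transcript measured by RT-PCR then capillary electrophoresis; hits raise reporter mRNA above DMSO so potency is for activation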
Outline: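 Readout is reporter mRNA induction via RT-PCR/capillary electrophoresis after 24 h chemical exposure, positive direction relative to DMSO. Transiently transfected HepG2 express chimeric chicken AR–GAL4; AR stimulated by 3 nM 6-alpha-fluorotestosterone and 1.5 nM norgestrel.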

[7] = ATG_M_19_XSP2: Attagene TRANS-FACTORIAL Multi-Species (XSP2) HepG2 Assay for M32 Transcription Factor (Internal Marker) (AID 2283822)
Outline: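 Internal background marker in a multi-species nuclear receptor TRANS panel: transfected HepG2 cells exposed 24 h, with 3 nM 6-alpha-fluorotestosterone and 1.5 nM norgestrel present. Readout is RT-PCR of reporter transcripts resolved by capillary electrophoresis, gain-of-signal versus DMSO.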

[8] = target: Ratio of Nucleoli Translocation and Cytoplasm, AR (gene 367) (UniProt P10275); assay: UPITT_HCI_U2OS_AR_TIF2_Nucleoli_Cytoplasm_Ratio_Antagonist: University of Pittsburgh U2OS Androgen Receptor-Transcriptional Intermediary Factor 2 (AR-TIF2) Antagonism High Content Imaging Assay for Ratio of Nucleoli Translocation and Cytoplasm (AID 2283999);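 note: antagonists lower the DHT-driven ratio of nucleolar to cytoplasmic red signal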
Outline: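 This antagonist-mode endpoint tracks AR-RFP localisation, the nucleolus-to-cytoplasm intensity ratio, in TIF2-GFP-coexpressing U2OS cells. DMSO stays at or below 0.5%; testing spans 20 uM single-dose and 0.195–50 uM series, with DHT setting the activity baseline.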

[9] = read-out: sulfotransferase (SULT2A), SULT2A1 (gene 6822); assay: CLD_SULT2A_6hr: CellzDirect (CLD) Gene Expression Assay for sulfotransferase (SULT2A) at 6 hours (AID 2283669);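 note: hits raise transcript level above the DMSO vehicle baseline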
Outline: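 Measured 6 h after dosing, SULT2A1 mRNA in human hepatocyte lysates was quantified by S1 nuclease protection with chemiluminescent detection. Increases fitted against 0.2% DMSO vehicle baseline; phase-contrast cytotoxicity recorded yes/no.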

[10] = read-out: xenobiotic metabolism (CYP1A2), CYP1A2 (gene 1544); assay: CLD_CYP1A2_24hr: CellzDirect (CLD) Gene Expression Assay for xenobiotic metabolism (CYP1A2) at 24 hours (AID 2283683)
Outline: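 CYP1A2 mRNA induction measured by quantitative nuclease protection (chemiluminescent) in human primary hepatocytes 24 h after multi-concentration chemical dosing with daily fresh solutions. DMSO (0.2%) baseline; positive-direction fitting; morphology-based cytotoxicity noted.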

[11] = CCTE_Mundy_HCI_Cortical_Synap_Neur_Matur_NeuronCount: CCTE's Synaptogenesis and Neurite Maturation Assay in rat cortical cells for Neuron Count, Mundy Lab (AID 2284242);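 for AC50: hits reduce neuron count versus DMSO baseline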
Outline: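 Measured at DIV 12: fluorescently labelled neurons (Hoechst nuclei, MAP2) in rat primary cortical cultures, counted by high-content imaging. AraC suppressed glia from DIV 5; DMSO served as negative control.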

[12] = read-out: xenobiotic metabolism (CYP1A2), CYP1A2 (gene 1544); assay: CLD_CYP1A2_6hr: CellzDirect (CLD) Gene Expression Assay for xenobiotic metabolism (CYP1A2) at 6 hours (AID 2283663);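 note: potency is for induction meaning a rise in mRNA above DMSO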
Outline: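 mRNA levels quantified by quantitative nuclease protection assay with chemiluminescence, 6 h after dosing human primary hepatocyte cultures (two donors) across several concentrations, vehicle 0.2% DMSO. Induction fitted upward versus DMSO; phase-contrast cytotoxicity annotated.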

[13] = target: rat Peripheral-type Benzodiazepine Receptor (PBR), Tspo (gene 24230) (UniProt P16257); assay: NVS_MP_rPBR: NovaScreen (NVS) Membrane Protein Assay for rat Peripheral-type Benzodiazepine Receptor (PBR) (AID 2283335)
Outline: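 Single-concentration duplicate screening at 25 uM preceded concentration-series retesting of actives. Binding of a specific radioligand to rat kidney membrane PBR was read by filtration radiodetection after 1 h, with plate-wise positive and negative controls.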

[14] = CCTE_Shafer_MEA_acute_AB: CCTE's Alamar Blue Assay for Cytotoxicity in the Neural Acute Assay, Shafer Lab (AID 2284069);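 note: active compounds lower the viability signal compared with DMSO wells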
Outline: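 Read-out: resazurin fluorescence (ex 544, em 590 nm) after CTB reagent at 1:6 dilution in fresh media. Cells: primary rat cortical neuron networks, DIV 13 or 15, chemically exposed on MEA plates; DMSO as negative control/baseline.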

[15] = ATG_XTT_Cytotoxicity: Cytotoxicity Assessment in the Attagene TRANS-FACTORIAL HepG2 Assay (AID 2283584);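 note: cells exposed to compound for 24 h before reading; active means loss of viability signal versus DMSO baseline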
Outline: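 Cells: human HepG2, transiently transfected with MRTU reporter constructs. Exposure 24 h. Readout: XTT, cell number. Baseline/neg ctrl DMSO; loss-of-signal scored.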

[16] = target: Nuclear receptor subfamily 1 group I member 2 (Homo sapiens) (UniProt O75469); assay: NVS_NR_hPXR: NovaScreen (NVS) Nuclear Receptor Binding Assay for human Pregnane X Receptor (PXR) (AID 2283365);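 note: a drop in FRET signal versus DMSO baseline means the compound binds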
Outline: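 Human PXR protein, cell-free; compound added, incubated 2 h, TR-FRET read. Signal decrease vs DMSO = binding. Screened 25 uM duplicate, actives re-run as dilution series.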

[17] = target: human Phosphatase and Tensin Homolog (PTEN), PTEN (gene 5728) (UniProt P60484); assay: NVS_ENZ_hPTEN: NovaScreen (NVS) Enzymatic Assay for human Phosphatase and Tensin Homolog (PTEN) (AID 2283203)
Outline: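 Loss of fluorescent product signal after mobility-shift separation reports PTEN activity, recombinant human enzyme, 1 h after compound addition. Single 25 uM duplicate screen, then concentration-response on actives; DMSO baseline.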

[18] = Tanguay_ZF_120hpf_CFIN_legacy: (Legacy) Oregon State University Tanguay Lab 120 Hour Post-fertilization zebrafish Assay for Caudal Fin Malformation (AID 2283649)
Outline: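 Binary presence or absence of caudal fin malformation at 120 hpf, read by brightfield microscopy, with DMSO as baseline. Larvae came from 5D wild-type embryos exposed statically from 6 hpf at 28C after pronase dechorionation.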

[19] = read-out: xenobiotic metabolism (CYP1A2), CYP1A2 (gene 1544); assay: CLD_CYP1A2_48hr: CellzDirect (CLD) Gene Expression Assay for xenobiotic metabolism (CYP1A2) at 48 hours (AID 2283703)
Outline: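 Cytotoxicity was flagged yes/no from morphology, while CYP1A2 transcript induction was detected by qNPA chemiluminescence after a 48-hour exposure. Human primary hepatocyte cultures from separate donors received fresh dosing solutions daily over two days, with 0.2% DMSO as vehicle and baseline.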

[20] = CCTE_Shafer_MEA_dev_AB: CCTE's Alamar Blue Assay for Cytotoxicity in the Neural Network Formation Assay, Shafer Lab (AID 2284083);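 note: resazurin reduction fluorescence as viability of cultured neurons; twelve days of exposure from plating with re-dosing on DIV 5 and 9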
Outline: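 Rat cortical primary cultures, 1.5 x 10^5 cells/well on MEA; continuous compound exposure over 12 days of network development, re-dosed with full medium change DIV 5 and 9. Alamar Blue fluorescence; loss of signal = cytotoxicity vs DMSO baseline.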

**Q.** What does the source list for `CCCC1COC(Cn2cncn2)(c2ccc(Cl)cc2Cl)O1` (centres undefined)?
**A.** AC50 [1]: inconclusive: 25 µM; outcome [2]: inactive; AC50 [3]: active: 26.9 µM; AC50 [4]: active: 9.51 µM; AC50 [5]: active: 6.46 µM; AC50 [6]: inconclusive: 40.7 nM; AC50 [7]: inconclusive: 100 µM

**Q.** Which results are given for `CCOC(=O)C(O)(c1ccc(Cl)cc1)c1ccc(Cl)cc1`?
**A.** AC50 [1]: inconclusive: 25 µM; AC50 [2]: inconclusive: 25 µM; AC50 [6]: inconclusive: 8.66 µM and inconclusive: 13 µM; outcome [7]: inactive

**Q.** For `CC(C)N(Cc1ccccc1)C(=O)C(C)(C)C`, which outcome [8] is on record?
**A.** inactive

**Q.** For `CSC(=O)c1c(C(F)F)nc(C(F)(F)F)c(C(=O)SC)c1CC(C)C`, which outcome [6] is on record?
**A.** inactive

**Q.** What about the outcome [7] of the same compound?
**A.** inactive

**Q.** What does the source list for `CCCCNC(=O)n1c(NC(=O)OC)nc2ccccc21`?
**A.** AC50 [3]: active: 72.8 µM; AC50 [4]: active: 19.2 µM; AC50 [9]: inconclusive: 0.0556 µM; AC50 [10]: active: 4.66 µM; AC50 [8]: inconclusive: 50 µM; AC50 [11]: inconclusive: 0.000148 µM

**Q.** What does the source list for `CCOC1Oc2ccc(OS(C)(=O)=O)cc2C1(C)C` (centres undefined)?
**A.** AC50 [12]: inconclusive: 20 µM; AC50 [8]: inconclusive: 0.0242 µM

**Q.** Which results are given for `CNC(=O)ON=C(C)SC`?
**A.** AC50 [13]: inconclusive: 7.69 µM; AC50 [2]: inconclusive: 25 µM; AC50 [4]: inconclusive: 0.106 µM; outcome [5]: inactive

**Q.** For `CC(C1CC1)C(O)(Cn1cncn1)c1ccc(Cl)cc1` (centres undefined), which AC50 [13] is on record?
**A.** inconclusive: 1.2 µM

**Q.** What about the AC50 [2] of the same compound?
**A.** inconclusive: 25 µM

**Q.** For `Cc1nc(N(C)C)nc(OC(=O)N(C)C)c1C`, which AC50 [1] is on record?
**A.** inconclusive: 25 µM

**Q.** And the AC50 [14]?
**A.** inconclusive: 20 µM

**Q.** Which AC50 [15] does the source give for `c1ccc2c(c1)Oc1ccccc1O2` here?
**A.** inconclusive: 0.0725 µM

**Q.** For `CCOP(=S)(OCC)SCCSCC`, which AC50 [14] is on record?
**A.** inconclusive: 15 µM

**Q.** What about the outcome [11] of the same compound?
**A.** inactive

**Q.** Which results are given for `CCOP(=S)(OCC)O/N=C(\C#N)c1ccccc1`?
**A.** outcome [16]: inactive; AC50 [6]: active: 17800 nM; outcome [6]: inactive; AC50 [7]: inconclusive: 24.8 µM

**Q.** What does the source list for `C#CC(C)(C)NC(=O)c1cc(Cl)cc(Cl)c1`?
**A.** outcome [17]: inactive; AC50 [3]: inconclusive: 69.6 µM; outcome [18]: inactive; AC50 [12]: inconclusive: 0.00277 µM; AC50 [6]: inconclusive: 90.5 nM; AC50 [7]: inconclusive: 100 µM

**Q.** With `COC(=O)N(C(=O)N1CO[C@@]2(C(=O)OC)Cc3cc(Cl)ccc3C2=N1)c1ccc(OC(F)(F)F)cc1` as the compound, how does the outcome [4] read?
**A.** inactive

**Q.** And the AC50 [10]?
**A.** active: 1.28 µM

**Q.** And the AC50 [19]?
**A.** active: 4.25 µM

**Q.** What about the AC50 [14] of the same compound?
**A.** inconclusive: 15 µM

**Q.** What about the AC50 [20] of the same compound?
**A.** active: 2.98 µM

**Q.** And the AC50 [11]?
**A.** inconclusive: 0.00391 µM
